Reference: publication PMC6317813
These are yes or no findings as the source states them, for the method shown. Binding seen in cells or lysates may run through a third protein. Some binding calls cover weakened binding; strength is not graded here.

Chains of the proteins cited; added tags and fusions are not shown. Lines headed by an entry give the natural chain unless they say otherwise; changes in a name come on top. A line that says so, or that is headed by a name, gives the form on record, which may keep a tag or linker.
UniProt P37238: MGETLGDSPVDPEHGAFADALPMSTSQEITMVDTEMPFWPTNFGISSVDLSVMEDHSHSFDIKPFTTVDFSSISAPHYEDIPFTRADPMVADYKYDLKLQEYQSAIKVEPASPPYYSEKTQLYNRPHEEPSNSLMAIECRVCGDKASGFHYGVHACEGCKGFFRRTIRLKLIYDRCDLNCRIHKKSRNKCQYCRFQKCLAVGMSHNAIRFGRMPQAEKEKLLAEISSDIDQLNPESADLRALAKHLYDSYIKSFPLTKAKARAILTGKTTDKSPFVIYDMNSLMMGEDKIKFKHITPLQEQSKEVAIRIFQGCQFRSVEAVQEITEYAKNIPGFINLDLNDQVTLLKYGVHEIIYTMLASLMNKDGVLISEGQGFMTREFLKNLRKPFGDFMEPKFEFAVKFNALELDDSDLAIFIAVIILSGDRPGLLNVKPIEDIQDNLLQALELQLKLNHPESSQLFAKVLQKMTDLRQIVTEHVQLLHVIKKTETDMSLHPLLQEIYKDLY
Myc-tagged Smurf1 (Q9HCE7-2, form named): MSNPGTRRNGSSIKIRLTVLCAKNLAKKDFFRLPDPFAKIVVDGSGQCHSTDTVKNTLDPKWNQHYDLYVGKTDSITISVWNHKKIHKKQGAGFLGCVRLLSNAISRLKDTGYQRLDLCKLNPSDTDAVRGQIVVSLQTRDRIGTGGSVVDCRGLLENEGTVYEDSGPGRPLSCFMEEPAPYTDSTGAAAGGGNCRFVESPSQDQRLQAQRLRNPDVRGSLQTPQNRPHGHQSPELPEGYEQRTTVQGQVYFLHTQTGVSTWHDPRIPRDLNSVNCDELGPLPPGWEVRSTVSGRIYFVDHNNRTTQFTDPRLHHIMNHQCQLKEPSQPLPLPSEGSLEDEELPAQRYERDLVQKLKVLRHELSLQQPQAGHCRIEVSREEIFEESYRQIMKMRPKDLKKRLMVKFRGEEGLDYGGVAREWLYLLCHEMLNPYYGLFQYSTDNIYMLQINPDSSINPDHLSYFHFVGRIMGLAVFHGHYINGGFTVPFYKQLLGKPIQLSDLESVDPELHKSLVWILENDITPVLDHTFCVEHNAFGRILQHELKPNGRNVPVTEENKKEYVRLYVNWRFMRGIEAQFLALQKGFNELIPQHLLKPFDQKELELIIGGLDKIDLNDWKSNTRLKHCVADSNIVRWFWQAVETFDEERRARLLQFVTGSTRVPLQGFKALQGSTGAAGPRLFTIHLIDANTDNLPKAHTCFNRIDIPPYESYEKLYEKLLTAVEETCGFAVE
UniProt Q9CUN6: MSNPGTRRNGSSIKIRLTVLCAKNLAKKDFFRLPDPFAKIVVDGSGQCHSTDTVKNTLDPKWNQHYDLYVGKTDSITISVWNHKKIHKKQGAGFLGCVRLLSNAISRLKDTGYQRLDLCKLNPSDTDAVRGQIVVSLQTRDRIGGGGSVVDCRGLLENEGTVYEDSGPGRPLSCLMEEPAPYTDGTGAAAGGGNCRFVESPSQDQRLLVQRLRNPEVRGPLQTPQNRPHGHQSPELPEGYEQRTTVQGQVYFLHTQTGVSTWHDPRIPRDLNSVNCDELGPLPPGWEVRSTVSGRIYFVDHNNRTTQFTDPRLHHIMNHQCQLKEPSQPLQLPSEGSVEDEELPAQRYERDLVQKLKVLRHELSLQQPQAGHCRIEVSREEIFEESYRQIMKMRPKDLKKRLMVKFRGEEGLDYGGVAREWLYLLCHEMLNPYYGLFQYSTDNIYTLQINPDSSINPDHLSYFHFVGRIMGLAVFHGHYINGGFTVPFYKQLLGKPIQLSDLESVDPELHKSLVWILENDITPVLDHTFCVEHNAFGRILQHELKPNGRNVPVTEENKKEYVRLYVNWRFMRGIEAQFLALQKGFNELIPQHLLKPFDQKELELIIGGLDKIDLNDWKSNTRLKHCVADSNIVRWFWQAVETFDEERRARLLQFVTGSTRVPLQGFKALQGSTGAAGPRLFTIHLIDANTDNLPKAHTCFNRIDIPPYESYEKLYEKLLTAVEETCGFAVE

Legend:
Flag-tagged PPARγ2 = Flag-tagged PPARγ2 (UniProt P37238); assay: co-IP; AML12 cells transiently transfected with Myc-Smurf1 and Flag-PPARγ2 or its ΔPY mutant; whole cell lysates immunoprecipitated with Flag-M2 beads, western blot
[1] = biological target: peroxisome proliferator-activated receptor γ (PPARγ), endogenous in AML12 cells (mouse (endogenous in AML12)) (UniProt P37238); assay: co-IP; endogenous Smurf1 and endogenous PPARγ in AML12 cells; western blot

Row | binding (Flag-tagged PPARγ2) | binding [1] | Substance
1 | binds | – | Myc-tagged Smurf1 (from UniProt Q9HCE7-2 1-731) (enzyme)
2 | – | binds | Smad ubiquitin regulatory factor 1 (Smurf1), endogenous in AML12 cells (from UniProt Q9CUN6 1-731) (enzyme)
